20 substances from US7294615B1 (priority 1999, dated 2007) can be followed below.

HELM strings list residues between dots; [ac] is acetyl, [am] amide, other brackets name non-standard units.

The nature of one data set: general procedure: solution-phase peptide synthesis; active esters (BocGlyGlyNOS, BocNH(CH2)5COONp) with NEt3. As to conditions: conjugation step.
As to “PEPTIDE1{[Bdi-Ap-Ad].[AC].[AC].[AC].G.G.G.G.G}|PEPTIDE2{[Bdi-Ap-Ad].[AC].[AC].[AC].G.G.G.G.G}|PEPTIDE3{[Bdi-Ap-Ad].[AC].[AC].[AC].G.G.G.G.G}|PEPTIDE4{[Bdi-Ap-Ad].[AC].[AC].[AC].G.G.G.G.G}|CHEM1{[C(CH2NH)4]}$PEPTIDE1,CHEM1,9:R2-1:R1|PEPTIDE2,CHEM1,9:R2-1:R2|PEPTIDE3,CHEM1,9:R2-1:R3|PEPTIDE4,CHEM1,9:R2-1:R4$$$V2.0”, the conjugation yield is on record as 69%.

In turn, “[Ac4(OMe)Neu5Ac-Gab-AC2-Ad-Gly5-NHCH2—]4C” displayed a conjugation yield of 46%.

The substance “[Ac4(OMe)Neu5Ac-Gab-AC3-Ad-Gly5-NHCH2—]4C” displayed a conjugation yield of 11%.

Consider “[Ac4(OMe)Neu5Ac-Gab-AC-Ad-Gly5-NHCH2—]4C”, for which the conjugation yield was determined as 76%.

“[Ac4(OMe)Neu5Ac-Gab-Ad-AC2-Gly5-NHCH2—]4C”: the conjugation yield was found to be 60%.

Substance “[Ac4(OMe)Neu5Ac-Gab-Ad-AC3-Gly5-NHCH2—]4C” had a conjugation yield of 57%.

For [Ac4(OMe)Neu5Ac-Gab-Ad-Gly4-NHCH2—]4C, the conjugation yield was 68%.

Regarding [Ac4(OMe)Neu5Ac-Gab-Ad-Gly5-NHCH2-]4C, the conjugation yield is recorded as 65%.

The same data set, now with this note: conjugation step, ammonium salt.
As for {[Neu5Ac-Gab-Ad-Gly6-NHCH2CH2-]2}x, the conjugation yield result is listed as “Yield 72%”.

Regarding {[Neu5Ac-Gab-Ad-Gly7-NHCH2-]4C}x, the conjugation yield came to 71%.

The same data set, now with this note: coupling step.
For [Boc-AC2-Gly5-NHCH2—]4C, the step yield is reported as 57%.

Consider [Boc-AC3-Gly5-NHCH2—]4C, for which the step yield was 40%.

[Boc-AC-Gly5-NHCH2—]4C: the step yield worked out at 71%.

Staying with this data set, now noted: late stage modification step.
In the case of [Neu5Ac-Gab-AC2-Ad-Gly5-NHCH2—]4C, the step yield amounted to 86%.

Turning to [Neu5Ac-Gab-AC3-Ad-Gly5-NHCH2—]4C, the step yield worked out at 89%.

[Neu5Ac-Gab-AC-Ad-Gly5-NHCH2—]4C had a step yield of 93%.

The substance [Neu5Ac-Gab-Ad-AC2-Gly5-NHCH2—]4C displayed a step yield of 87%.

In turn, [Neu5Ac-Gab-Ad-AC3-Gly5-NHCH2—]4C registered a step yield of 90%.

For [Neu5Ac-Gab-Ad-Gly4-NHCH2—]4C, the step yield was 83%.

As for [Neu5Ac-Gab-Ad-Gly5-NHCH2—]4C, the step yield stood at 83%.
